# Source: paper PMC4728123
# Protein sequences, listed by entry. Tags and fused reporters are not part of them. Residues count along the entry.
# UniProt P37173, residues 23-567: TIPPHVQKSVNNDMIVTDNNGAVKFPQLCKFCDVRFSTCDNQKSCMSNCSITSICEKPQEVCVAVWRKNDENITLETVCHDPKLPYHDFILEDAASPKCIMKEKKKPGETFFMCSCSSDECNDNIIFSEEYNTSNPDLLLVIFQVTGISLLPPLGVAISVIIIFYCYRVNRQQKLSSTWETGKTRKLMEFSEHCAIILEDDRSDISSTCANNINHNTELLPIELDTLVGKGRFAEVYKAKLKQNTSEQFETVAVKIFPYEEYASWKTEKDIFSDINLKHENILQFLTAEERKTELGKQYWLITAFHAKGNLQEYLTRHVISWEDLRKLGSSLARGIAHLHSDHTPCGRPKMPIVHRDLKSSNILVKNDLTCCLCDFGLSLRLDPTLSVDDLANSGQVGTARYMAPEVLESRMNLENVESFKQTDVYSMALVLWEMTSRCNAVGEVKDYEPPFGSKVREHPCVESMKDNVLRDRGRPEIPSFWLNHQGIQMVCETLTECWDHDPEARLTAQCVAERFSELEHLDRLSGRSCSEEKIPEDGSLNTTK
# UniProt Q99873: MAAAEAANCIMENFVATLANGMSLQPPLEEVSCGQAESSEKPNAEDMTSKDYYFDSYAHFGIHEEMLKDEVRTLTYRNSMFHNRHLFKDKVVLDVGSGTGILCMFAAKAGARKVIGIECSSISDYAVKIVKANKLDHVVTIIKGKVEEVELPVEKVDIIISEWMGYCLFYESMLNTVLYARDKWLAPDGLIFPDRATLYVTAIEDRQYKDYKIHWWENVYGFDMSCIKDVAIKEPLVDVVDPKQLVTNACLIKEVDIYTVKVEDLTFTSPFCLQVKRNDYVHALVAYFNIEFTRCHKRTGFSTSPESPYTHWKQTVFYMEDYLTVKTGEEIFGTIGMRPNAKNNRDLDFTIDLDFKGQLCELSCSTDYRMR
# UniProt O14744: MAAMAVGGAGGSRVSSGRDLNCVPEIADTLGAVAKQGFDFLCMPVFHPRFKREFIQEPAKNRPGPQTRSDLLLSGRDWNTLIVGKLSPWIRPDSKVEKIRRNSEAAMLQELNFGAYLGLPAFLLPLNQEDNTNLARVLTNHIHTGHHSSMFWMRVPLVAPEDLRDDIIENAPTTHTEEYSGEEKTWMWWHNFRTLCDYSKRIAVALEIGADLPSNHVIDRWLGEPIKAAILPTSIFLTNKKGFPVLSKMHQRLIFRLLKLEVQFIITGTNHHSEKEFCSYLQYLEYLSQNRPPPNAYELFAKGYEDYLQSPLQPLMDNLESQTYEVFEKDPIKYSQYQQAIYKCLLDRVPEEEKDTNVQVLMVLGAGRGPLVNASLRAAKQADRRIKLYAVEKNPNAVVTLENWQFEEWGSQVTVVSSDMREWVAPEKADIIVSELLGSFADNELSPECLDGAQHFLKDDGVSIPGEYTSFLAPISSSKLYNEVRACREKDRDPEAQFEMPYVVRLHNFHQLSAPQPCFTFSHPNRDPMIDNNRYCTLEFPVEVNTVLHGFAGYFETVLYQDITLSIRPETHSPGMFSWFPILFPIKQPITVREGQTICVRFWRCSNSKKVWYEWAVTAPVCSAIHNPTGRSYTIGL
# These are yes or no findings as the source states them, for the method shown. Binding seen in cells or lysates may run through a third protein. Here binding means that the protein was enriched with, or labelled near, the bait; the list need not be complete. For some of these results: Tags and fused reporters may be left off the sequences shown.
# Legend:
# [1] = target: T1, TGFβ type I receptor Flag (TβRI-Flag, Alk5) (UniProt P36897); experiment: affinity purification with mass spectrometry; cells expressing TβRII-Flag or TβRI-Flag and integrin αV-mCherry, lysed (50 mM Tris pH 7.5, 150 mM NaCl, 2 mM EDTA, 0.5% Igepal, 0.25% sodium deoxycholate), M2-Flag magnetic beads, on-bead trypsin digestion, LC-MS/MS; compared with untransfected (mock) cells
# T1 sequence: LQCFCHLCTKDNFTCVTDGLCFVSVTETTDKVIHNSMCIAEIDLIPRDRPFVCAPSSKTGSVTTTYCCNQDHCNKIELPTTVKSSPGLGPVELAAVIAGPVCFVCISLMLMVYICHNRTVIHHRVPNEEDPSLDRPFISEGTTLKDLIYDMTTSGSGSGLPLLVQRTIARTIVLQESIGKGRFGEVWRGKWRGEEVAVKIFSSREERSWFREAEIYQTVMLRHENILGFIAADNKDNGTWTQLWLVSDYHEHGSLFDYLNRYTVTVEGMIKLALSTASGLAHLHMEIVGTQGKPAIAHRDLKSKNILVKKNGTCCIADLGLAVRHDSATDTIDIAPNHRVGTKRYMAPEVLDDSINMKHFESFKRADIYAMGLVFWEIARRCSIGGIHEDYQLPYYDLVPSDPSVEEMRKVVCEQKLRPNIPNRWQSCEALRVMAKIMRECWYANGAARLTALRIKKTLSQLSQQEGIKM
# [2] = target: TGFβ type II receptor Flag (TβRII-Flag) (UniProt P37173); experiment: as above
binding [1],binding [2],Substance
binds,binds,PRMT1 (from UniProt Q99873 1-371) (enzyme)
binds,binds,PRMT5 (from UniProt O14744 1-637) (enzyme)
